± gives the standard deviation of the averaged measurements. The list shows a part of the results. This is a noisy data set.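 The cells are a human neuroglioma line carrying a green fluorescent autophagy reporter.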
Tested on: H4 GFP-LC3
Assay: ACBP immunofluorescence intensity (scaled to control) (AU (scaled)); higher = more intracellular ACBP/DBI
Details: 6 h

| Structure (SMILES) | ACBP immunofluorescence intensity |
| --- | --- |
| N[C@H](CO)C(=O)O (5 µM) | 0.618 |
| Fc1ccc([C@@H]2CCNC[C@H]2COc2ccc3c(c2)OCO3)cc1 (5 µM) | 0.912 |
| CCC1(c2ccccc2)C(=O)NCNC1=O (5 µM) | 0.924 |
| N[C@@H]1CCN(O)C1=O (5 µM) | 0.697 |
| C[N+](C)(C)CC[N+]1(C)Cc2c(Cl)c(Cl)c(Cl)c(Cl)c2C1 (5 µM) | 0.908 |
| O=C1CC2(CCCC2)CC(=O)N1CCCCNCC1COc2ccccc2O1 (stereo not drawn) (5 µM) | 0.842 |
| CC(C)(C)[C@@]1(O)CCN2C[C@@H]3c4ccccc4CCc4cccc(c43)[C@H]2C1 (5 µM) | 0.717 |
| CC(=O)NCC(=O)N[C@H](CCC(=O)O)C(=O)O (5 µM) | 0.975 |
| CN/C(=N\CCSCc1nc[nH]c1C)NC#N (5 µM) | 0.875 |
| CCN1CCC[C@H]1CNC(=O)c1c(OC)ccc(Br)c1OC (5 µM) | 0.89 |
| O=C(Nc1ccccc1)C12CC1C(=NO)c1ccccc1O2 (stereo not drawn) (5 µM) | 0.955 |
| N[C@@H](CSS(=O)(=O)O)C(=O)O (5 µM) | 0.995 |
| CC(C)NC[C@@H](O)COc1cccc2ccccc12 (5 µM) | 0.861 ± 0.055 |
| CNCCCC12CCC(c3ccccc31)c1ccccc12 (5 µM) | 0.945 |
| Nc1ncnc2c1ncn2[C@@H]1O[C@H](COP(=O)(O)OP(=O)(O)O)[C@@H](O)[C@H]1O (5 µM) | 0.998 |
| COc1ccc2[nH]cc(CCNC(C)=O)c2c1 (5 µM) | 0.771 |
| CN(C)CCCN1c2ccccc2CCc2ccc(Cl)cc21 (5 µM) | 0.97 |
| O=C(NCCNN1CCCCC1)c1ccc(I)cc1 (5 µM) | 0.877 |

Part of the list above in order of count of non-hydrogen atoms, descending:

| Structure (SMILES) | ACBP immunofluorescence intensity |
| --- | --- |
| O=C1CC2(CCCC2)CC(=O)N1CCCCNCC1COc2ccccc2O1 (stereo not drawn) (5 µM) | 0.842 |
| CC(=O)NCC(=O)N[C@H](CCC(=O)O)C(=O)O (5 µM) | 0.975 |
| N[C@@H](CSS(=O)(=O)O)C(=O)O (5 µM) | 0.995 |
